Measurements reported in PubChem BioAssay AID1259274 (Sanger Institute, 2017)
In all, the deposit lists 794 reagents; shown is a random part of them. Of all reagents, 11 (1.4%) are marked active. 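Calls rest on knock-down without drug only; synergy scores with anchor drugs were not used for the essential call.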 No viability above 1 is reported: the scale is capped. Further read-outs or replicates are left out here. Not stated in the record: the amount of reagent, the time to read-out.

- Screen: 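Kinase knock-downs that cut colorectal cancer cell viability or boost drug killing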 (primary screen)
- System: human RKO colorectal cancer cells
- Reagents: siRNA pool against human genes
- Conditions: anchor drugs BYL719 at 1 µM, cetuximab at 5 µg/ml or trametinib at 10 nM; DMSO vehicle as the no-drug arm
- Measured: 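Viability as fraction of non-targeting pool 2 control, averaged across replicates, robust z-score for single knock-down, and a combination synergy score per anchor drug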
- Reading the numbers: viability z-score, siRNA alone: higher = more viable cells; low values mean essential gene; viability, siRNA alone, vehicle: higher = more viable cells
- Units: viability, siRNA alone, vehicle in fraction of control
- Hit rule: 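Essential when the robust viability z-score with siRNA only falls below -3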
- Calls: active = essential when knocked down alone; inactive = no change alone

With knock-down of GALK1 the results were viability z-score, siRNA alone -0.0169; viability, siRNA alone, vehicle 0.897; inactive. For TEC the deposit lists viability z-score, siRNA alone -0.0587; viability, siRNA alone, vehicle 0.893; inactive. STK16 gave viability z-score, siRNA alone 0.898; viability, siRNA alone, vehicle 0.975; inactive. SPHK1 showed viability z-score, siRNA alone 1.19; viability, siRNA alone, vehicle 1; inactive. For PIK3CD, the values are viability z-score, siRNA alone 1.1; viability, siRNA alone, vehicle 0.992; inactive. After knock-down of PRKAR1B, the screen gave viability z-score, siRNA alone -0.121; viability, siRNA alone, vehicle 0.888; inactive.

Knock-down of CDK5R2 resulted in: viability z-score, siRNA alone 0.965; viability, siRNA alone, vehicle 0.981; inactive. After knock-down of MAP3K15 the results were viability z-score, siRNA alone 0.745; viability, siRNA alone, vehicle 0.962; inactive. With knock-down of SGK3 the results were viability z-score, siRNA alone 0.0812; viability, siRNA alone, vehicle 0.905; inactive. With knock-down of VRK3, the record shows viability z-score, siRNA alone -0.579; viability, siRNA alone, vehicle 0.848; inactive. MINK1 gave viability z-score, siRNA alone 0.39; viability, siRNA alone, vehicle 0.931; inactive. Depletion of MED24 came out at: viability z-score, siRNA alone 0.371; viability, siRNA alone, vehicle 0.93; inactive.

Sorted by “viability, siRNA alone, vehicle” (high to low): 2 of the entries above.
MINK1 → viability z-score, siRNA alone: 0.39; viability, siRNA alone, vehicle: 0.931; Call: inactive
MED24 → viability z-score, siRNA alone: 0.371; viability, siRNA alone, vehicle: 0.93; Call: inactive
